Some of the results follow.
Tests used:
Experiment in all cases: small molecules altering RGS protein interactions with GNAO1 – biochemical, multiplexed beads, flow cytometry, RGS4/7/8/16/19, primary screen (AID 1504);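 note: fluorescently labeled Galpha-o bound to GDP with aluminium fluoride binding biotinylated RGS beads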
[1] = biological target: Regulator of G-protein signaling 16 (Homo sapiens) (UniProt O15492); details: multiplexed bead flow cytometry, measured here: RGS16 interaction, at 10 µM
[2] = biological target: Regulator of G-protein signaling 19 (Homo sapiens) (UniProt P49795); details: multiplexed bead flow cytometry, measured here: RGS19 interaction, at 10 µM
[3] = biological target: Regulator of G-protein signaling 7 (Homo sapiens) (UniProt P49802); details: multiplexed bead flow cytometry, measured here: RGS7 interaction, at 10 µM
[4] = biological target: Regulator of G-protein signaling 8 (Homo sapiens) (UniProt P57771); details: multiplexed bead flow cytometry, measured here: RGS8 interaction, at 10 µM

Row | SMILES | RGS16–Galpha-o binding response [1] [%] | RGS19–Galpha-o binding response [2] [%] | RGS7–Galpha-o binding response [3] [%] | RGS8–Galpha-o binding response [4] [%]
1 | c1ccc(-c2nn[nH]n2)c(-c2nn[nH]n2)c1 | -1.45 | 156 | 68.5 | 48.7
2 | Nc1cccc2c([As](=O)(O)O)cccc12 | 27.8 | 145 | 318 | 49.9

From PubChem BioAssay AID1504 (NMMLSC, 2009)
